# At least one peptide structure holds a part that was inferred or is arguable (an end, a ring closure or a residue). Square brackets hold non-standard residues; d marks the D form. Peptide text beside a SMILES is read from it.
# The chains behind the UniProt entries cited, without tags or fusion partners. Where a name states a change or a piece, a line headed by the entry shows the natural chain unless it says otherwise.
# UniProt Q01726: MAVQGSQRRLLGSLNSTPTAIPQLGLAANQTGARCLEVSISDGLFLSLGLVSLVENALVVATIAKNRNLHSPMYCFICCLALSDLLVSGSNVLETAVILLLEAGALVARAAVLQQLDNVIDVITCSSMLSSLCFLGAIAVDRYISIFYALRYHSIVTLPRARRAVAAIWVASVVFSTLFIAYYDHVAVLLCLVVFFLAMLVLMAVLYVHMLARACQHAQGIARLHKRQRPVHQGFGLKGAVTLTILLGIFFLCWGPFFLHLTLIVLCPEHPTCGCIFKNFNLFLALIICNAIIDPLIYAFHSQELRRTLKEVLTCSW
# Target: T1, Human recombinant melanocortin MCI receptors (Homo sapiens, UniProt Q01726)
# T1 construct: purchased Eurofins Discovery Item 251100; host or cells: CHO-K1
# Experiment: MC1 Human Melanocortin GPCR Binding (Agonist Radioligand) competition assay (Eurofins Item 251100)
# Conditions: stated as 'in some embodiments'
# Protocol: The binding of Group A MCIR peptide antagonists of the disclosure was evaluated in a competition assay (MC1 Human Melanocortin GPCR Binding (Agonist Radioligand) Assay, Item 251100, Eurofins Discovery). […] Human recombinant melanocortin MCI receptors were expressed in CHO-K1 cells in modified HEPES-KOH buffer pH 7.0. […] Non-specific binding was estimated in the presence of 1 μM NDP-α-MSH. Receptors were filtered and washed, and the filters counted to determine [^125I] NDP-α-MSH specifically bound. Peptide antagonists of the disclosure having amino acid sequences as set forth in SEQ ID NOS: 11, 16, 25, 27, 32, 35, and 40 (each having a C-terminal —NH2) were screened at five concentrations, as well as a positive control, SEQ ID NO: 1 (Melanostatine-5). […] Based on the competitive binding curve, the IC50 values were determined (Eurofins or AAT Bioquest IC50 calculator). […] The binding of Group A MCIR peptide antagonists of the disclosure was evaluated in a competition assay (MC1 Human Melanocortin GPCR Binding (Agonist Radioligand) Assay, Item 251100, Eurofins Discovery). […] Receptors were filtered and washed, and the filters counted to determine [^125I]NDP-α-MSH specifically bound. […] Based on the percent inhibition relative to the agonist the IC50 values were determined (Eurofins or AAT Bioquest IC50 calculator).
row,Structure (SMILES),"IC50 value compared to a reference (e.g., SEQ ID NO 1)"
1,"CC[C@H](C)[C@H](N)C(=O)N[C@@H](Cc1ccccc1)C(=O)N[C@@H](CCCNC(=N)N)C(=O)N[C@H](Cc1c[nH]c2ccccc12)C(=O)N[C@@H](Cc1ccccc1)C(=O)N[C@@H](CCCCN)C(=O)N1CCC[C@H]1C(=O)N[C@H](C(N)=O)C(C)C [SEQ ID NO: 32, Ile-Phe-Arg-dTrp-Phe-Lys-Pro-Val-NH2] (H-IFR[dW]FKPV-NH2)",lower
2,"CC(C)[C@H](NC(=O)[C@@H]1CCCN1C(=O)[C@H](CCCCN)NC(=O)[C@H](Cc1ccccc1)NC(=O)[C@@H](Cc1c[nH]c2ccccc12)NC(=O)[C@H](CCCNC(=N)N)NC(=O)[C@@H](Cc1ccccc1)NC(=O)[C@@H](NC(=O)[C@@H](N)Cc1ccccc1)C(C)C)C(N)=O [SEQ ID NO: 16, Phe-Val-dPhe-Arg-dTrp-Phe-Lys-Pro-Val-NH2] (H-FV[dF]R[dW]FKPV-NH2)",lower

# Reference: US20250026787A1, “PEPTIDES AND METHODS FOR REDUCING SKIN PIGMENTATION” (Glo Pharma, Inc., priority 2021, published 2025)
